Experimental data as given in PubChem BioAssay AID623959 (National Center for Advancing Translational Sciences (NCATS), 2012).
Among all 1,400 compounds or so, fewer than 10 were called active. Roughly 8% stayed inconclusive and do not appear here. Calls follow the shape of the dose curve; as a rule, active = well fitted curve in the direction sought with a large enough effect; inconclusive = small, poorly fitted or top-dose-only effect, or another doubt; inactive = no such curve, though single readings can be large or run the other way. This is one part of the list.

Protein sequences, listed by entry. Tags and fused reporters are not part of them.
UniProt Q8NER1, whole entry, looked up: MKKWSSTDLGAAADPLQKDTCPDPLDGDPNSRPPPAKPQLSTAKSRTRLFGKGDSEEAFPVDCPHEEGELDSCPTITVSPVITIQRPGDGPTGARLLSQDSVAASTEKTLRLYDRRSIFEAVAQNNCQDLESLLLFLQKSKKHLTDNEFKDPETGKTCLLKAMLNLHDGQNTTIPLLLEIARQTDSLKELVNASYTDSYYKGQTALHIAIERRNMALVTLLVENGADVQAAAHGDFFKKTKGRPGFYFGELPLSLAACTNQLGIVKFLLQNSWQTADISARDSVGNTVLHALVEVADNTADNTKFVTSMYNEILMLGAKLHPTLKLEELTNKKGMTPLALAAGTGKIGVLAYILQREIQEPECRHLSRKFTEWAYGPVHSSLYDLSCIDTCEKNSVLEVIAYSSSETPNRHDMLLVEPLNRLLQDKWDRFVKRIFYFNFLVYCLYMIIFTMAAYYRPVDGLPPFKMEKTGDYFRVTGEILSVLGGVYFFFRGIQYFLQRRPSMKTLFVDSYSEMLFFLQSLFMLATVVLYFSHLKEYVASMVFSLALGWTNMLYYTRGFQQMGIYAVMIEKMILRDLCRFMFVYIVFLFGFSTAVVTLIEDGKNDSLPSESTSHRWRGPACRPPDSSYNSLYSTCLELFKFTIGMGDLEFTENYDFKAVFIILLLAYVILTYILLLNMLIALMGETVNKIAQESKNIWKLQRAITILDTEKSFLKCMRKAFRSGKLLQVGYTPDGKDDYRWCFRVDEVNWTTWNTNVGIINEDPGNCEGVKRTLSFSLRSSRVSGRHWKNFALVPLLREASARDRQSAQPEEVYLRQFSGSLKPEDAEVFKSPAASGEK

biological target: Transient receptor potential cation channel subfamily V member 1 (Homo sapiens) (UniProt Q8NER1); assay: qHTS Assay for Compounds that Act as Potentiators of the Vanilloid Receptor 1: Hit Validation; details: TRPV1-expressing cells, Fluo-8 calcium influx, capsaicin EC20; series mostly up to 42.1 µM; activity change, positive = potentiation: at the top concentration; also: % of control where 0% means no effect
Method in brief: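 Calcium influx via Fluo-8 fluorescence (480/520 nm) on FDSS: 10 s baseline, 3 min compound read, 2 min read after EC20 capsaicin. TRPV1-expressing cells plated 2000/well, grown overnight at 35.5 °C.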

Activity change, positive = potentiation, inactive:
OCc1c(OCc2cccc(F)c2)ccc2ccccc12 -5.44%
COc1ccc(/C=C(\C#N)c2n[nH]c(Cn3cncn3)n2)cc1 -9.19%
CS(=O)(=O)N1N=C(c2cccs2)CC1c1ccc(Cl)o1 (centres undefined) 0.108%
CCOc1ccc(CNC(=O)CCSCc2ccccc2F)cc1OC -38.4%
O=C(Nc1ccc(Cc2ccc(NC(=O)C3CC3)c(O)c2)cc1O)C1CC1 11.9%
Cc1ccc2oc(C(=O)Nc3cc(C)on3)c(C)c2c1 1.69%
Cc1ccc(C(=O)CSc2ccc(-c3cccnc3)nn2)cc1 -4.92%
CC(C)(C)c1ccc(C(=O)Nc2cccc([N+](=O)[O-])c2)cc1 -39.1%
O=C(c1ccc(C(F)(F)F)cc1)C1CCCN(C(=O)CCc2ccncc2)C1 (centres undefined) -31.3%
O=C(CCn1c(=S)[nH]c2ccccc2c1=O)NCCc1ccccc1 0.76%
c1ccc2c(c1)ccc1nnc(SCc3ccc4c(c3)OCO4)n12 -6.53%
O=C(OCc1nnn(Cc2ccccc2)c1-c1c(COC(=O)c2ccccc2)nnn1Cc1ccccc1)c1ccccc1 2.69%
Cc1ccc(Nc2nc(-c3cccnc3)nc3ccccc23)cc1 -38.9%
O=C(NCCN1CCOCC1)C1CCC(=O)N1Cc1ccccc1Cl (centres undefined) -1.67%
COc1ccc(-n2nc(C(=O)NCC(=O)NCCCN3CCCCCC3)c3ccccc3c2=O)cc1Cl -7.25%
CN1CCN(c2ccc(NC(=O)CN3CCOCC3)cc2F)CC1 -3.44%
COc1ccc(C2CC(c3cccs3)=NN2C(=S)Nc2ccccc2)cc1OC (centres undefined) 1.54%
COc1ccccc1CNC(=O)C1CCCN1S(=O)(=O)c1cccc2cccnc12 (centres undefined) 6.62%
COc1ccc(NC(=O)c2ccccc2NC(=O)c2ccccc2)cc1 5.64%
CCCCNc1c(-c2cccc(-c3cc(C(C)=O)cs3)c2)nc2cc(C)ccn12 -38.5%
CNc1c(NS(=O)(=O)c2cc(OC)ccc2OC)c(=O)oc2ccccc12 5.88%
Cc1ccc(-c2csc(N(C)C(=O)c3c(C)nn(-c4ccccc4)c3Cl)n2)cc1 -1.37%
O=C(N/N=C/c1ccc(Br)s1)c1ccccn1 -39%
O=C(CCSc1ccc(Cl)cc1)NCc1ccncc1 -38.8%
CCC(C)(C(=O)NC1CCCC1)N(C)C(=O)c1ccccn1 (centres undefined) -5.13%
O=C(CCC(=O)N1CCCC(Nc2ccccc2)C1)c1ccc(F)cc1 (centres undefined) -39.4%
C=CCOc1c(Br)cc(CNc2ccc3[nH]c(=O)[nH]c3c2)cc1OCC -25.8%
Cc1ccc(NC(=O)CCSc2nnc(-c3ccco3)o2)cc1 0.582%
O=C(Nc1ccc(C(=O)O)cc1)/C(=C\c1ccccc1)NC(=O)c1ccco1 -6.77%
COc1ccc(NC(=O)c2ccc(Br)c(S(=O)(=O)N3CCOCC3)c2)cc1 -24.8%
CCOCCCn1c(=S)[nH]c2cc(C(=O)N3CCC(C(N)=O)(N4CCCCC4)CC3)ccc2c1=O -7.29%
CC(C)(C)c1ccc(C(=O)NNC(=O)C2CCCCC2)cc1 -33.1%
COc1cc(C2C(C#N)=C(N)N(c3cccnc3)C3=C2C(=O)CC(C)(C)C3)ccc1O (centres undefined) -0.886%
Fc1cccc(CCN2CCN=C2Nc2ccccc2)c1 13.1%
COc1cc2[nH]c(C(=O)Nc3ccc(F)cc3)cc2c(OC)c1OC -38.3%
COc1cccc(CN(C)c2nc(-c3cccs3)nc3ccccc23)c1 -5.99%
COc1cc2ccc3c(CCN(C)C)cc(OC)c(OC)c3c2cc1OC -5.22%
CCC(=O)Nc1ccc(S(=O)(=O)NCCc2ccccc2)cc1 -8.71%
CCc1nnc(NC(=O)CSc2nnc(-c3ccc(S(=O)(=O)N4CCCC4)cc3)n2CC)s1 -1.37%
N#Cc1ccc(NC(=O)CCc2ccc(S(=O)(=O)N3CCOCC3)cc2)cc1 -32.7%
COc1ccc(NC(=O)CN2CCCCC2)cc1 -0.829%
O=C(c1ccco1)N1CCN(Cc2nc3ccccc3c(=O)n2-c2ccc(F)cc2)CC1 -10.1%
C/C(=N\Nc1ccc2nncn2n1)c1ccc(Br)s1 -31.2%
Cc1ccc(S(=O)(=O)N2CCN(C(=O)c3ccccc3)C2)cc1[N+](=O)[O-] -3.75%
COc1ccc(OC)c(CNC(=O)CCCn2ccc3cc(S(=O)(=O)N4CCCC4)ccc32)c1 -6.47%
COc1cc(CCC(O)CC(=O)CCc2ccccc2)ccc1O (centres undefined) -39.6%
COc1ccc2nc(N)sc2c1 -9.83%
Cc1ncc(CSc2nc3ccccc3[nH]2)c(N)n1 -5.57%
CC(=O)N(c1ccc(N(C(C)=O)S(=O)(=O)c2cccs2)cc1)S(=O)(=O)c1cccs1 -11.5%
Cc1ccc(-n2nc(C(=O)N3CCOCC3)cc2-c2ccc(Cl)cc2)cc1 -15.1%
COc1cc(OC)c(C2=NOC(C(=O)NCc3ccc4c(c3)OCO4)C2)cc1Cl (centres undefined) -4.8%
CC(C)CNC(=O)c1cccc(NC(=O)c2ccc3c(c2)C(=O)N(C)C3=O)c1 -7.15%
CCCCCC(=O)NC(NC(=S)N1CCOCC1)C(Cl)(Cl)Cl (centres undefined) -38.2%
Cc1c(Cl)c(-c2n[nH]c(=S)n2-c2ccc(F)cc2)nn1C -7.45%
COc1ccc(NS(=O)(=O)c2ccc3[nH]c(=O)[nH]c3c2)cc1 3.72%
Brc1ccc(OCCCOc2cccc3cccnc23)cc1 -25.9%
CC(=O)Nc1ccc(S(=O)(=O)NCCc2csc(C)n2)cc1 -4.87%
C=CCNc1nc2c(c(=O)n(C)c(=O)n2C)n1CCCCCC -7.33%
O=C(Nc1ccc(F)cc1)c1cc(Cl)sc1Cl -13.9%
CCc1ccccc1NC(=O)CCC(=O)Nc1nnc(C(C)C)s1 0.768%
CCn1c(SCC(=O)Nc2nc(C)cs2)nnc1C(C)NC(=O)c1ccccc1 (centres undefined) -6.95%
COc1cccc(/C=N/NC(=O)c2nc(-c3ccccc3)cc(-c3ccccc3)n2)c1O -4.21%
Cc1cc(-c2nnc(SCC(=O)Nc3ccccc3C(F)(F)F)n2N)n[nH]1 -1.55%
COCCNC(=O)CCc1c(C)nc2c(c(C)nn2-c2ccc(C)cc2)c1C -38.5%
Cc1cccc(-n2c(=O)[nH]c3c(C(N)=O)nc(CC(C)C)nc32)c1 0.951%
CSCc1ccc(C(=O)N2CCCC(Nc3ccc4c(c3)OCCO4)C2)o1 (centres undefined) -35.3%
O=C(c1cc(COc2ccc(F)cc2Cl)on1)N1CCC(c2ccncc2)CC1 -38.4%
CC1(S(=O)(=O)O)CC(=O)c2ccccc2C1=O (centres undefined) -4.21%
CCOC(=O)/C=C1\CN(CCC(C)C)S(=O)(=O)c2ccccc21 -8.51%

Among those listed so far, these have fluorine:
Activity change, positive = potentiation, inactive:
OCc1c(OCc2cccc(F)c2)ccc2ccccc12 -5.44%
CCOc1ccc(CNC(=O)CCSCc2ccccc2F)cc1OC -38.4%
O=C(c1ccc(C(F)(F)F)cc1)C1CCCN(C(=O)CCc2ccncc2)C1 (centres undefined) -31.3%
CN1CCN(c2ccc(NC(=O)CN3CCOCC3)cc2F)CC1 -3.44%
O=C(CCC(=O)N1CCCC(Nc2ccccc2)C1)c1ccc(F)cc1 (centres undefined) -39.4%
Fc1cccc(CCN2CCN=C2Nc2ccccc2)c1 13.1%
COc1cc2[nH]c(C(=O)Nc3ccc(F)cc3)cc2c(OC)c1OC -38.3%
O=C(c1ccco1)N1CCN(Cc2nc3ccccc3c(=O)n2-c2ccc(F)cc2)CC1 -10.1%
Cc1c(Cl)c(-c2n[nH]c(=S)n2-c2ccc(F)cc2)nn1C -7.45%
O=C(Nc1ccc(F)cc1)c1cc(Cl)sc1Cl -13.9%
Cc1cc(-c2nnc(SCC(=O)Nc3ccccc3C(F)(F)F)n2N)n[nH]1 -1.55%
O=C(c1cc(COc2ccc(F)cc2Cl)on1)N1CCC(c2ccncc2)CC1 -38.4%

Among those listed so far, two contain a tert-butyl group:
Activity change, positive = potentiation, inactive:
CC(C)(C)c1ccc(C(=O)Nc2cccc([N+](=O)[O-])c2)cc1 -39.1%
CC(C)(C)c1ccc(C(=O)NNC(=O)C2CCCCC2)cc1 -33.1%
